Results as given in article PMC4012723.
These are yes or no findings as the source states them, for the method shown. Binding seen in cells or lysates may run through a third protein. Here binding means that the protein was enriched with, or labelled near, the bait; the list need not be complete.

Amino acid sequences for entries named in this document (tags omitted).
UniProt Q9BXW9: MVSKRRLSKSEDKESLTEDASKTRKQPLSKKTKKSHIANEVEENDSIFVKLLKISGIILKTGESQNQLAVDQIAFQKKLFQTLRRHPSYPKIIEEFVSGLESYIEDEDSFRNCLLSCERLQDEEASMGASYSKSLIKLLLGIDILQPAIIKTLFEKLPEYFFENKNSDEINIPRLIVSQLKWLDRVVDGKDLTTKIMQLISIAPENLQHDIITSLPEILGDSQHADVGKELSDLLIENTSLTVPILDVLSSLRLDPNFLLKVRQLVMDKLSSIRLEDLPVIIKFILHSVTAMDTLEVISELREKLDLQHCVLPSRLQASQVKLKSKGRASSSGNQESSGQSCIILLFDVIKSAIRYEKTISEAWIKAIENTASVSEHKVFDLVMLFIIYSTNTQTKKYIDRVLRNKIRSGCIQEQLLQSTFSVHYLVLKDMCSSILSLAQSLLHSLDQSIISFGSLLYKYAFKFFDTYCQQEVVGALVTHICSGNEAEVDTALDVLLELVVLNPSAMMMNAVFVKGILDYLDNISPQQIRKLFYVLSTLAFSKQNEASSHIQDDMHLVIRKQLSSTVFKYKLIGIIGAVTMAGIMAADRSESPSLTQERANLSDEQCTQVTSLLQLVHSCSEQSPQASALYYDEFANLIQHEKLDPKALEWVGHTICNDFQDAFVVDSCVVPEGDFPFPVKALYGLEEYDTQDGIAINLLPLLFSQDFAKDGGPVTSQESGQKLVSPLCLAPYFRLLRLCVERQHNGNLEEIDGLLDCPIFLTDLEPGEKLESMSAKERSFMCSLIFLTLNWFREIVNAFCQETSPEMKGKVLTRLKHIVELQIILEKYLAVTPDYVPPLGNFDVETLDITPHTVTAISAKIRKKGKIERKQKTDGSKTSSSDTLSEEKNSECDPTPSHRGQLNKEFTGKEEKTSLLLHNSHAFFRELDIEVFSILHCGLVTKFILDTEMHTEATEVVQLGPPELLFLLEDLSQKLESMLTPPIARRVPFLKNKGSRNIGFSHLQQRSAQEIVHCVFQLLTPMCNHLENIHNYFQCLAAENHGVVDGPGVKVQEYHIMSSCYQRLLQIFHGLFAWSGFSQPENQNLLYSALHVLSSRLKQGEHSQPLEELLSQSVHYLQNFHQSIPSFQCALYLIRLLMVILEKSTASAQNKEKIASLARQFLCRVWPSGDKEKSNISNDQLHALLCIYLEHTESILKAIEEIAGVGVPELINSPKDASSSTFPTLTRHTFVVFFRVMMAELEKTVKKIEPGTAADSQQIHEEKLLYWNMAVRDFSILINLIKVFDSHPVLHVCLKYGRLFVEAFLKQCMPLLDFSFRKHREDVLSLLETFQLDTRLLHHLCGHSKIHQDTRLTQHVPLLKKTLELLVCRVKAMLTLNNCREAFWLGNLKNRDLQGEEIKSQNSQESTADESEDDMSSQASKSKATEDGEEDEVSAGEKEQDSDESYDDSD

Molecular target: Flag-wild type (wt) FANCD2 (UniProt Q9BXW9)
Test: affinity purification with mass spectrometry; Flag-IP eluates of CRL-1790 cells transfected with Flag-wtFANCD2 or Flag-mtFANCD2, 8-16% gradient SDS-PAGE, extra band slightly larger than 100 kDa excised, trypsin, MS/MS

B1: endogenous MCM3 (protein, UniProt P25205 1-808)
chain: MAGTVVLDDVELREAQRDYLDFLDDEEDQGIYQSKVRELISDNQYRLIVNVNDLRRKNEKRANRLLNNAFEELVAFQRALKDFVASIDATYAKQYEEFYVGLEGSFGSKHVSPRTLTSCFLSCVVCVEGIVTKCSLVRPKVVRSVHYCPATKKTIERRYSDLTTLVAFPSSSVYPTKDEENNPLETEYGLSVYKDHQTITIQEMPEKAPAGQLPRSVDVILDDDLVDKAKPGDRVQVVGTYRCLPGKKGGYTSGTFRTVLIACNVKQMSKDAQPSFSAEDIAKIKKFSKTRSKDIFDQLAKSLAPSIHGHDYVKKAILCLLLGGVERDLENGSHIRGDINILLIGDPSVAKSQLLRYVLCTAPRAIPTTGRGSSGVGLTAAVTTDQETGERRLEAGAMVLADRGVVCIDEFDKMSDMDRTAIHEVMEQGRVTIAKAGIHARLNARCSVLAAANPVYGRYDQYKTPMENIGLQDSLLSRFDLLFIMLDQMDPEQDREISDHVLRMHRYRAPGEQDGDAMPLGSAVDILATDDPNFSQEDQQDTQIYEKHDNLLHGTKKKKEKMVSAAFMKKYIHVAKIIKPVLTQESATYIAEEYSRLRSQDSMSSDTARTSPVTARTLETLIRLATAHAKARMSKTVDLQDAEEAVELVQYAYFKKVLEKEKKRKKRSEDESETEDEEEKSQEDQEQKRKRRKTRQPDAKDGDSYDPYDFSDTEEEMPQVHTPKTADSQETKESQKVELSESRLKAFKVALLDVFREAHAQSIGMNRLTESINRDSEEPFSSVEIQAALSKMQDDNQVMVSEGIIFLI
For B1, which binding is on record?
The binding was “binds”.
